Source: PubChem BioAssay AID1671190 (National Center for Advancing Translational Sciences (NCATS), 2021)
Hit rate of the full screen: of about 580,000 compounds, about 6,100 (1.1%) were called active. Inconclusive results, whose numbers are uncertain, are shown with a selection of clear calls. The call rests on the fitted dose curve; in most records, active means well fitted inhibition curve with a large enough effect; inconclusive means small, poorly fitted or top-dose-only effect, or another doubt; inactive means no such curve, though single readings can be large or run the other way. Potencies beside an inconclusive call are fits to weak or partial responses and may not hold up.

Amino acid sequences for entries named in this document (tags omitted). A change or cut given only in a name is not applied to a line headed by its entry.
UniProt P18054: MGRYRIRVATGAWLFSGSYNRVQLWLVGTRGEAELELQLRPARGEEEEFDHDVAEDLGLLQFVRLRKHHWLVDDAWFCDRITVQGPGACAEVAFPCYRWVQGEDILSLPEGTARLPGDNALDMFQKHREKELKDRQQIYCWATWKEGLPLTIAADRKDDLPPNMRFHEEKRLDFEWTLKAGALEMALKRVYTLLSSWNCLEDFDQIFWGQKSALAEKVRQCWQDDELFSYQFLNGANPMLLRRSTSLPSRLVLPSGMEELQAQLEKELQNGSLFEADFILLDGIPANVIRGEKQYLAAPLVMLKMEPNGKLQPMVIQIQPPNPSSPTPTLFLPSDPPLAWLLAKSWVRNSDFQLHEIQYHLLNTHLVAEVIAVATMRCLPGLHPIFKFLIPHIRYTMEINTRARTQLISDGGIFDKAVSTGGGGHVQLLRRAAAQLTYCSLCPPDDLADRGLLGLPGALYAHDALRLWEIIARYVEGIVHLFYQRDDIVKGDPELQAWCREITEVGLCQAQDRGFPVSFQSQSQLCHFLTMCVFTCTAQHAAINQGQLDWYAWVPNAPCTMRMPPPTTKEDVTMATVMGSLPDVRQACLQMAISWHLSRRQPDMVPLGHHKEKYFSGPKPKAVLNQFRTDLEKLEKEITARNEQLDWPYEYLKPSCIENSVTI

What follows are compounds tested against Polyunsaturated fatty acid lipoxygenase ALOX12 (Homo sapiens) (UniProt P18054) (assay: Primary qHTS assay for inhibitors of human arachidonate 12S-lipoxygenase (ALOX12): Round 2). Settings: purified 12hLO, xylenol orange hydroperoxide absorbance; activity change, negative = inhibition: at 108 µM (top of the series) unless noted.
How it was run: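 Hydroperoxide product was detected by ferrous iron/xylenol orange as the 573 to 405 nm absorbance ratio. Arachidonic acid at 40 uM (final) was turned over for 30 min at room temperature by 150 nM human 12hLO, pH 7.0 Hepes buffer, after 15 min compound preincubation.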
On the % scale 0 is the no-effect control and ±100 the full control effect; potency means the concentration at half of the fitted maximal effect.

| SMILES | Potency | activity change, negative = inhibition |
| --- | --- | --- |
| C/C(=C(/CCO)SSCC1CCCO1)N(C=O)Cc1cnc(C)nc1N (stereo not drawn) | inactive | – |
| CCOc1ccc2nc(NC(=O)CCNC(=O)c3ccccc3Cl)sc2c1 | inactive | – |
| Cc1ccc(Nc2nc(-c3cccc([N+](=O)[O-])c3)cs2)cc1C | inconclusive: 31.6 µM [inhibitor, partial curve, poor fit] | – |
| CCc1ccc(NC(=O)C2CCCN(S(=O)(=O)c3cccs3)C2)cc1 (stereo not drawn) | inconclusive: 100 µM [inhibitor, partial curve, poor fit] | – |
| CC(C)c1ccc(NC(=O)CSC2=Nc3ccccc3C3=NC(CC(=O)NC4CCCCC4)C(=O)N23)cc1 (stereo not drawn) | inactive | – |
| CN(Cc1ccco1)c1ccnc(-c2ccoc2)n1 | inconclusive: 6.31 µM [inhibitor, full curve, poor fit] | – |
| COc1cc(/C=C2/SC(=S)N(Cc3ccccc3)C2=O)cc(Cl)c1O | inconclusive: 44.7 µM [inhibitor, partial curve, poor fit] | – |
| COc1ccc(C=O)cc1COc1ccc(C=O)cc1 | inconclusive: 158 µM [inhibitor, single point] | – |
| COc1ccccc1CNc1nc(NCCOc2ccccc2Cl)c2sccc2n1 | inconclusive: 112 µM [inhibitor, single point] | – |
| CC(C)c1ccc(/C=N/NC(=O)CC(=O)NC2CCCCC2)cc1 | inconclusive: 112 µM [inhibitor, partial curve, poor fit] | – |
| Cc1ccc(-n2ccc3nc(N4CCCC4)ncc3c2=O)cc1C | inconclusive: 56.2 µM [inhibitor, full curve, poor fit] | – |
| COc1ccc(-c2cc(C(=O)N3CCN(c4ccccc4F)CC3)c3ccccc3n2)c(OC)c1 | inconclusive: 50.1 µM [inhibitor, partial curve, poor fit] | – |
| CN(c1cc2c(c3c1ccn3C)C1CCC2C1)C1CCCCC1 (stereo not drawn) | inconclusive: 44.7 µM [inhibitor, partial curve, poor fit] | – |
| COC(=O)c1ccc(C)c(NC(=O)CCc2cc(OC)c(OC)c(OC)c2)c1 | inactive | – |
| COc1ccc2c(Sc3ccc(Cl)cc3)c(C(=O)N3CCCCC3)[nH]c2c1 | inconclusive: 89.1 µM [inhibitor, partial curve, poor fit] | – |
| Cc1nc(N)c(C#N)c(-c2ccccc2Cl)c1C | inactive | – |
| C/C(=N\NC(=O)c1cc(O)ccc1O)c1cccc(NC(=O)c2cccc(Cl)c2)c1 | inconclusive: 0.316 µM [inhibitor, full curve, poor fit] | – |
| CC1SC(=S)N(c2ccc(N(C)C)cc2)C1=O (stereo not drawn) | inactive | – |
| COc1ccc(N2CCN(C3CCCN(S(=O)(=O)c4ccc(C)cc4C)C3)CC2)cc1 (stereo not drawn) | inconclusive: 79.4 µM [inhibitor, partial curve, poor fit] | – |
| COc1ccc(C(=O)NC[C@H]2O[C@@H](CO)[C@@H](O)[C@H]2N2CCc3ccccc3C2)cc1 | inconclusive: 17.8 µM [inhibitor, full curve] | – |
| C=C(C)CNC(=S)N/N=C(\C)c1ccc(Cl)s1 | inconclusive: 28.2 µM [inhibitor, partial curve] | – |
| NNC(=S)NCc1ccco1 | inconclusive: 112 µM [inhibitor, partial curve, poor fit] | – |
| Cc1cc(C)c(O)c(-c2n[nH]c3c2C(c2ccccc2F)N(CCCO)C3=O)c1 (stereo not drawn) | inconclusive: 79.4 µM [inhibitor, single point] | – |

Fetched by compound from the list above, five records:

| SMILES | Potency | activity change, negative = inhibition |
| --- | --- | --- |
| Cc1cc(C)c(O)c(-c2n[nH]c3c2C(c2ccccc2F)N(CCCO)C3=O)c1 (stereo not drawn) | inconclusive: 79.4 µM [inhibitor, single point] | – |
| CCOc1ccc2nc(NC(=O)CCNC(=O)c3ccccc3Cl)sc2c1 | inactive | – |
| COC(=O)c1ccc(C)c(NC(=O)CCc2cc(OC)c(OC)c(OC)c2)c1 | inactive | – |
| CC(C)c1ccc(NC(=O)CSC2=Nc3ccccc3C3=NC(CC(=O)NC4CCCCC4)C(=O)N23)cc1 (stereo not drawn) | inactive | – |
| COc1ccc(C=O)cc1COc1ccc(C=O)cc1 | inconclusive: 158 µM [inhibitor, single point] | – |

Next results

| SMILES | Potency | activity change, negative = inhibition |
| --- | --- | --- |
| COc1ccc(N2CCN(CCCNC(=O)c3ccc4nc(N5CCCCC5)sc4c3)CC2)cc1 | inconclusive: 50.1 µM [inhibitor, partial curve, poor fit] | – |
| CC1(C)CC(N2CCN(c3ccccc3)CC2)=CC(=[N+]2CCCC2)C1 | inconclusive: 20 µM [inhibitor, partial curve, poor fit] | – |
| Clc1ccccc1-c1nnc2n1-c1ccccc1SC2 | inactive | – |
| CC1(C)CCC[C@]2(C)C(CS(=O)c3ccccc3)=C(C=O)CC[C@@H]12 (stereo partly drawn) | inconclusive: 126 µM [inhibitor, partial curve, poor fit] | – |
| Cc1ccc(-c2cc([C@H]3[C@@H]4C=CCC[C@@]4(C)C(=O)N3Cc3ccccc3)ccc2F)cc1 | inactive | – |
| Cc1cccc(NC(=O)c2ccc(S(=O)(=O)N3CCCCCC3)cc2)n1 | inactive | – |
| O=C(CCc1ncc(-c2ccccc2)o1)N1CCN(c2ccc([N+](=O)[O-])cc2)CC1 | inactive | – |
| CCOc1ccc(NC(=O)c2oc3ccccc3c2NC(=O)c2cc3ccccc3o2)cc1 | inactive | – |
| Cc1ccc(C(=O)c2cnc3ccccc3c2-c2ccccc2)cc1 | inactive | – |
| CSc1ccccc1NC(=O)COC(=O)CNC(=O)CC12CC3CC(CC(C3)C1)C2 | inactive | – |
| CCOC(=O)CSc1nc2cc3c(cc2c(=O)n1CCCCCC(=O)NCc1ccc(OC)cc1)OCO3 | inconclusive: 63.1 µM [inhibitor, partial curve, poor fit] | – |
| COCC1CN(C(C)=O)CC12CCN(Cc1ccc(F)cc1)CC2 (stereo not drawn) | inactive | – |
| COc1ccc(/C=C/c2nnc(NC(=O)COc3ccc(C)cc3)s2)cc1 | inactive | – |
| O=C(O)C[C@@H]1CCN(C(=O)COc2ccccc2)C[C@@H]1CCN1CCCCC1 | inconclusive: 63.1 µM [inhibitor, partial curve] | – |
| COC(=O)c1ccc(NC(=O)CCc2ccco2)cc1 | inconclusive: 3.55 µM [inhibitor, full curve, poor fit] | – |
| Nc1ccc(O)cc1C(=O)OCC(=O)c1ccc(C2CCCCC2)cc1 | active: 11.2 µM | – |
| Cc1ccc(CNCCc2cccs2)s1 | inconclusive: 3.55 µM [inhibitor, full curve, poor fit] | – |
| COc1ccc(CN2CCc3oc(C)c(C(=O)N4CCN(c5ncccn5)CC4)c3C2)cc1 | inconclusive: 22.4 µM [inhibitor, full curve] | – |
| COc1ccc(Cl)cc1NCCC(O)c1ccc(F)cc1 (stereo not drawn) | inactive | – |
| COC(=O)[C@@H]1Cc2ncn(C)c2CN1C(=O)c1ccccc1 | inconclusive: 22.4 µM [inhibitor, full curve] | – |
| Oc1ccc(/C=N/n2cnn(Cc3ccccc3Cl)c2=S)c(O)c1 | inconclusive: 39.8 µM [inhibitor, partial curve] | – |
| O=C(Nc1ccc(Br)cc1)c1cccc(S(=O)(=O)N2CCc3ccccc32)c1 | inconclusive: 126 µM [inhibitor, partial curve, poor fit] | – |
| Fc1ccc(NCc2cccnc2)cc1F | inactive | – |

| SMILES | Potency | activity change, negative = inhibition |
| --- | --- | --- |
| c1ccc(-c2nnc3ccc(SCc4ccco4)nn23)cc1 | inconclusive: 31.6 µM [inhibitor, partial curve] | – |
| CCNC(=O)C(=O)Nc1ccc2c(c1)N(S(=O)(=O)c1cccs1)CCC2 | inactive | – |
| O=C(Nc1ccc2oc(-c3ccccc3Br)nc2c1)c1ccco1 | inconclusive: 89.1 µM [inhibitor, partial curve, poor fit] | – |
| OCCNc1nc(-c2ccccc2)c2cc(Br)ccc2n1 | inconclusive: 89.1 µM [inhibitor, single point] | – |
| CC(C)NC(=O)[C@@H]1C[C@@H](N)CN1C(=O)c1cccc2ccccc12 | inactive | – |
| COC(=O)c1ccc(/C=C2\Oc3cc(OC(=O)C(C)(C)C)ccc3C2=O)cc1 | inconclusive: 3.98 µM [inhibitor, full curve, poor fit] | – |
| Cc1ccc2c(c1)N1C(=O)OC[C@@H]1CCN(C(=O)CCC(=O)O)C2 | inconclusive: 89.1 µM [inhibitor, partial curve, poor fit] | – |
| CC(NCc1ccc(C(C)(C)C)cc1)c1ccc(S(C)(=O)=O)cc1 (stereo not drawn) | inconclusive: 0.199 µM [inhibitor, full curve, poor fit] | – |
| COc1cccc(NC(=O)Cc2cccs2)c1 | inactive | – |
| Cn1c(CCC(=O)O)nc2cc(S(=O)(=O)N3CCCCC3)ccc21 | inconclusive: 44.7 µM [inhibitor, partial curve, poor fit] | – |
| O=C(CSc1nc2ccccc2c(=O)n1CC1CCCO1)NCc1ccccc1 (stereo not drawn) | inconclusive: 126 µM [inhibitor, single point] | – |
| C=CCNc1oc(/C=C/c2cccc(OC)c2)nc1C#N | inconclusive: 22.4 µM [inhibitor, partial curve, poor fit] | – |
| Cc1ccc(-c2cnc(SCC(=O)Nc3cccc(F)c3)o2)cc1C | inactive | – |
| COc1ccc(Cl)cc1Nc1nc(C)nc2c1oc1ccccc12 | inconclusive: 44.7 µM [inhibitor, partial curve, poor fit] | – |
| COc1cccc(NC(=O)CN(C)CC(=O)c2c(C)[nH]c3ccccc23)c1 | inconclusive: 89.1 µM [inhibitor, single point] | – |
| O=C(C(=O)N1CCN(C(=O)c2cc(-c3ccc(Cl)cc3)nc3ccccc23)CC1)N1CCOCC1 | inconclusive: 31.6 µM [inhibitor, full curve, poor fit] | – |
| CC(OC(=O)c1cc(=O)c2ccccc2o1)C(=O)Nc1ccc(C(F)(F)F)cc1 (stereo not drawn) | inconclusive: 50.1 µM [inhibitor, partial curve, poor fit] | – |
| Cc1ccc(Nc2cc(C)nc(NCc3ccccc3)n2)c(C)c1 | inconclusive: 39.8 µM [inhibitor, partial curve, poor fit] | – |
| CCCCCN1C=CC=C/C1=C\C=C(C#N)C#N | inconclusive: 50.1 µM [inhibitor, partial curve, poor fit] | – |
| Cc1nc2c(c(C)nn2-c2ccccc2)c(C)c1CCC(=O)NCc1ccccc1 | inactive | – |
| NS(=O)(=O)c1cc2c(cc1Cl)NC(C(Cl)Cl)NS2(=O)=O (stereo not drawn) | inconclusive: 28.2 µM [inhibitor, single point] | – |
| Cc1cc(C)cc(-n2nnnc2SCC(=O)N2CCOCC2)c1 | – | inconclusive: -30% [inhibitor] |
